{"source": "PubChem BioAssay AID1259405 (NCATS, 2018)", "assay": "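Mouse-designed siRNAs used to find CHO productivity engineering targets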 (primary screen)", "system": "Chinese hamster CHO-K1 ovary cells with stable secreted eGFP expression", "reagents": "single siRNA against mouse genes, 0.8 pmol siRNA per well (2 µl of 400 nM stock)", "timing": "3 days", "measurement": "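Per-well intracellular GFP measured by laser scanning cytometry, plus viability from ATP luminescence, each relative to plate median of non-targeting control wells, in %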", "reading the numbers": "GFP, % of control: higher = more GFP per well, higher productivity; viability (ATP), % of control: higher = more viable cells (more ATP)", "active means": "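a knock-down is called active if GFP reaches 120% or more of non-targeting control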", "note": "Shown is one part, drawn at random, of about 50,000 deposited reagents. Over the whole deposit, about 4,000 (8%) are marked active. 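Mouse siRNA library applied to hamster cells; one well for each siRNA.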 Entries without a mark were called inactive. The numbers tell different reagents against one gene apart. No sequences are given here."}
The first 4 entries, to show the layout:
{"Gene": "Scn8a (sodium channel, voltage-gated, type VIII, alpha)", "siRNA no.": 1, "GFP, % of control": 75, "viability (ATP), % of control": 85.5}
{"Gene": "Scn8a (sodium channel, voltage-gated, type VIII, alpha)", "siRNA no.": 2, "GFP, % of control": 79.1, "viability (ATP), % of control": 46.2}
{"Gene": "Scn8a (sodium channel, voltage-gated, type VIII, alpha)", "siRNA no.": 3, "GFP, % of control": 61.8, "viability (ATP), % of control": 76.9}
{"Gene": "Ucp3", "siRNA no.": 1, "GFP, % of control": 80.1, "viability (ATP), % of control": 73.4}

Results, from the start:
{"Gene": "Scn8a (sodium channel, voltage-gated, type VIII, alpha)", "siRNA no.": 1, "GFP, % of control": 75, "viability (ATP), % of control": 85.5}
{"Gene": "Scn8a (sodium channel, voltage-gated, type VIII, alpha)", "siRNA no.": 2, "GFP, % of control": 79.1, "viability (ATP), % of control": 46.2}
{"Gene": "Scn8a (sodium channel, voltage-gated, type VIII, alpha)", "siRNA no.": 3, "GFP, % of control": 61.8, "viability (ATP), % of control": 76.9}
{"Gene": "Ucp3", "siRNA no.": 1, "GFP, % of control": 80.1, "viability (ATP), % of control": 73.4}
{"Gene": "Ucp3", "siRNA no.": 2, "GFP, % of control": "129 (active)", "viability (ATP), % of control": 84.3}
{"Gene": "Ucp3", "siRNA no.": 3, "GFP, % of control": 86.6, "viability (ATP), % of control": 74.6}
{"Gene": "Gps2 (G protein pathway suppressor 2)", "siRNA no.": 1, "GFP, % of control": 69.6, "viability (ATP), % of control": 61.9}
{"Gene": "Gps2 (G protein pathway suppressor 2)", "siRNA no.": 2, "GFP, % of control": 102, "viability (ATP), % of control": 85.1}
{"Gene": "Gps2 (G protein pathway suppressor 2)", "siRNA no.": 3, "GFP, % of control": 80.3, "viability (ATP), % of control": 59.8}
{"Gene": "Pycr1 (pyrroline-5-carboxylate reductase 1)", "siRNA no.": 1, "GFP, % of control": 78.5, "viability (ATP), % of control": 95.3}
{"Gene": "Pycr1 (pyrroline-5-carboxylate reductase 1)", "siRNA no.": 2, "GFP, % of control": 75.5, "viability (ATP), % of control": 48.9}
{"Gene": "Pycr1 (pyrroline-5-carboxylate reductase 1)", "siRNA no.": 3, "GFP, % of control": "128 (active)", "viability (ATP), % of control": 75.4}
{"Gene": "Rnasek (ribonuclease, RNase K)", "siRNA no.": 1, "GFP, % of control": 52.2, "viability (ATP), % of control": 64.7}
{"Gene": "Rnasek (ribonuclease, RNase K)", "siRNA no.": 2, "GFP, % of control": 37.6, "viability (ATP), % of control": 57.9}
{"Gene": "Rnasek (ribonuclease, RNase K)", "siRNA no.": 3, "GFP, % of control": 84.4, "viability (ATP), % of control": 88}
{"Gene": "Asb5 (ankyrin repeat and SOCs box-containing 5)", "siRNA no.": 1, "GFP, % of control": 50.7, "viability (ATP), % of control": 55.1}
{"Gene": "Asb5 (ankyrin repeat and SOCs box-containing 5)", "siRNA no.": 2, "GFP, % of control": 63.6, "viability (ATP), % of control": 85.3}
{"Gene": "Asb5 (ankyrin repeat and SOCs box-containing 5)", "siRNA no.": 3, "GFP, % of control": 52.6, "viability (ATP), % of control": 54.2}
{"Gene": "S100a14 (S100 calcium binding protein A14)", "siRNA no.": 1, "GFP, % of control": 116, "viability (ATP), % of control": 117}
{"Gene": "S100a14 (S100 calcium binding protein A14)", "siRNA no.": 2, "GFP, % of control": 61.8, "viability (ATP), % of control": 62.1}
{"Gene": "Or52m2 (olfactory receptor family 52 subfamily M member 2)", "siRNA no.": 1, "GFP, % of control": 64.8, "viability (ATP), % of control": 70.7}
{"Gene": "Or52m2 (olfactory receptor family 52 subfamily M member 2)", "siRNA no.": 2, "GFP, % of control": 85.5, "viability (ATP), % of control": 81.8}
{"Gene": "Or52m2 (olfactory receptor family 52 subfamily M member 2)", "siRNA no.": 3, "GFP, % of control": 69.4, "viability (ATP), % of control": 108}
{"Gene": "Ccdc68 (coiled-coil domain containing 68)", "siRNA no.": 1, "GFP, % of control": 117, "viability (ATP), % of control": 97.3}
{"Gene": "Ccdc68 (coiled-coil domain containing 68)", "siRNA no.": 2, "GFP, % of control": 91.7, "viability (ATP), % of control": 77.6}
{"Gene": "Ccdc68 (coiled-coil domain containing 68)", "siRNA no.": 3, "GFP, % of control": 111, "viability (ATP), % of control": 83.5}
{"Gene": "Fhip2a (FHF complex subunit HOOK interacting protein 2A)", "siRNA no.": 1, "GFP, % of control": 94.3, "viability (ATP), % of control": 62.4}
{"Gene": "Fhip2a (FHF complex subunit HOOK interacting protein 2A)", "siRNA no.": 2, "GFP, % of control": 84.4, "viability (ATP), % of control": 102}
{"Gene": "Fhip2a (FHF complex subunit HOOK interacting protein 2A)", "siRNA no.": 3, "GFP, % of control": 112, "viability (ATP), % of control": 80.3}
{"Gene": "Pif1 (PIF1 5'-to-3' DNA helicase)", "siRNA no.": 1, "GFP, % of control": 89.7, "viability (ATP), % of control": 70.5}
{"Gene": "Pif1 (PIF1 5'-to-3' DNA helicase)", "siRNA no.": 2, "GFP, % of control": 79.5, "viability (ATP), % of control": 102}
{"Gene": "Pif1 (PIF1 5'-to-3' DNA helicase)", "siRNA no.": 3, "GFP, % of control": 111, "viability (ATP), % of control": 78.1}
{"Gene": "Slc15a3", "siRNA no.": 1, "GFP, % of control": 84.8, "viability (ATP), % of control": 96}
{"Gene": "Slc15a3", "siRNA no.": 2, "GFP, % of control": 70, "viability (ATP), % of control": 62.5}
{"Gene": "Slc15a3", "siRNA no.": 3, "GFP, % of control": 75.7, "viability (ATP), % of control": 87.5}
{"Gene": "Cd320 (CD320 antigen)", "siRNA no.": 1, "GFP, % of control": 19.3, "viability (ATP), % of control": 44.8}
{"Gene": "Cd320 (CD320 antigen)", "siRNA no.": 2, "GFP, % of control": 32.1, "viability (ATP), % of control": 70.3}
{"Gene": "Cd320 (CD320 antigen)", "siRNA no.": 3, "GFP, % of control": 49.9, "viability (ATP), % of control": 69}
{"Gene": "Rasef (RAS and EF hand domain containing)", "siRNA no.": 1, "GFP, % of control": 64.6, "viability (ATP), % of control": 57.8}
{"Gene": "Rasef (RAS and EF hand domain containing)", "siRNA no.": 2, "GFP, % of control": 15.4, "viability (ATP), % of control": 15.9}
{"Gene": "Rasef (RAS and EF hand domain containing)", "siRNA no.": 3, "GFP, % of control": 65.5, "viability (ATP), % of control": 57.5}
